US7749984B2, “Computer-based model for identification and characterization of non-competitive inhibitors of nicotinic acetylcholine receptors and related ligand-gated ion channel receptors” (priority 2003, dated 2010)
At least one compound was matched to its structure with a doubt left.

Amino acid sequences for entries named in this document (tags omitted). Residues count along the entry.
UniProt P04757, 26-499: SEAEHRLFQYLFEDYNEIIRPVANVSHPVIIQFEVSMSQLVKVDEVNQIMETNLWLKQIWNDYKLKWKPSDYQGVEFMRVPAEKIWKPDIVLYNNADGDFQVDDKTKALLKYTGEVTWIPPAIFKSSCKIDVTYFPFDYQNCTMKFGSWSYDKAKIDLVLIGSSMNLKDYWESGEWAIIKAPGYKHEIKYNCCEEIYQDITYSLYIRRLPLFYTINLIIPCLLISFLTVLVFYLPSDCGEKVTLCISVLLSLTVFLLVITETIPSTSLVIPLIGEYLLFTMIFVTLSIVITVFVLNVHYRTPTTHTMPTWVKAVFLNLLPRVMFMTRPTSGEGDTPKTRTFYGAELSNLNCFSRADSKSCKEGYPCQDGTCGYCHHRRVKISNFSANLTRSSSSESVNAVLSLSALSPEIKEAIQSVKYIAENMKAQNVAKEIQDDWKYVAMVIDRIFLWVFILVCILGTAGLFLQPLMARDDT
UniProt P12392, 21-495: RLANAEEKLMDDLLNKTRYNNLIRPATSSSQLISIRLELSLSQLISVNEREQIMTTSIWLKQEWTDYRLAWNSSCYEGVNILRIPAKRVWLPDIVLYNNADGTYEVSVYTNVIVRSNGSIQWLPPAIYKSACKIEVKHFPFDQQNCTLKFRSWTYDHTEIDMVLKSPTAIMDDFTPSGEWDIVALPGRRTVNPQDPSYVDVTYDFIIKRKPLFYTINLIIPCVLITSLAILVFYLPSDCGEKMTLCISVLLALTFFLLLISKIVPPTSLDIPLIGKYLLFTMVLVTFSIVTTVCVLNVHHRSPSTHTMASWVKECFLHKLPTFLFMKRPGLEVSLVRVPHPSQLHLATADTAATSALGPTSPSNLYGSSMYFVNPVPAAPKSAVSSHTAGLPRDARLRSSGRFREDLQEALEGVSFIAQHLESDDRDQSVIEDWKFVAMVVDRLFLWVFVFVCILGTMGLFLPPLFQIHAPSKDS

Target: α3β4 nAChR (Rattus norvegicus, UniProt P04757+P12392)
Type: binding
Set-up: host or cells: HEK293 (KXα3β4R2)
Settings: for k′(NLC) retention capacity factor: 10 μM, 20 μl injected, ammonium acetate 10 mM pH 7.4/methanol 85:15

Compound	logk′	k′(NLC) retention capacity factor
CCOC(=O)C1=C(COCCN)NC(C)=C(C(=O)OC)C1c1ccccc1Cl (stereo not drawn) [amlodipine]	2	
CCCCC1C(=O)N(c2ccccc2)N(c2ccccc2)C1=O [phenylbutazone]		6.29
CN1CC[C@@]23CCCC[C@@H]2[C@@H]1Cc1ccc(O)cc13 [dextrorphan]		26.79
